The source of these data is patent publication EP4653451A1 (Chengdu New Radiomedicine Technology Co., Ltd., priority 2023, dated 2024).

A short description of series [1]: general procedure: Fmoc solid-phase peptide synthesis; Fmoc-Linker MBHA Resin; preloaded CTC resins (Fmoc-Cys(Trt)-CTC, Fmoc-Beta-HomoCys(Trt)-CTC, Fmoc-Phe-CTC, Fmoc-1Nal-CTC); DIC/HOBt (amino acid : DIC : HOBt = 3 : 3 : 3). The conditions noted are these: trifluoroacetate.
A short description of series [2]: general procedure: Fmoc solid-phase peptide synthesis; CTC resin; DIC/HOBt (amino acid : DIC : HOBt = 3 : 3 : 3). Conditions: whole synthesis, scale 1 mmol, trifluoroacetate, thioether ring, sequence written open.
Where [3] appears, read: whole synthesis, thioether ring, sequence written open.

For part of these data: Some peptides are written in HELM: one residue between dots, names in brackets for other building blocks, links after the first $.

As to “Hex-Cys-Pro-Pro-Thr-Gln-Phe-Cys-CH2NH-(D-beta-HomoAla-tranexamic acid-DOTA) (Cys bridge 2,6-bis(bromomethyl)fluorobenzene) trifluoroacetate”, the “final HPLC purity” value in series [1] (cyclisation step) turned out to be 99.4%. With “Hexanoyl-(Cys(tMeBn(DOTA-AET))-D-Pro-Pro-Thr-Gln-1Nal-betahomoCys)-OH”, the “final HPLC purity” value in series [1] (setting [3]) is listed as 90.14%.

Take “Hexanoyl-(Cys(tMeBn(DOTA-AET))-Pro-D-Pro-Thr-Gln-1Nal-betahomoCys)-OH”: in series [1] (setting [3]), the “final HPLC purity” value is 90.13%. Regarding “Hexanoyl-(Cys(tMeBn(DOTA-AET))-Pro-Pro-D-Thr-Gln-1Nal-betahomoCys)-OH”, the “final HPLC purity” value in series [1] (setting [3]) amounted to 92.36%. On the same count and under the same terms, the same measure for “Hexanoyl-(Cys(tMeBn(DOTA-AET))-Pro-Pro-Thr-D-Gln-1Nal-betahomoCys)-OH”: 94.36%; for “Hexanoyl-(Cys(tMeBn(DOTA-AET))-Pro-Pro-Thr-Gln-D-1Nal-betahomoCys)-OH”: 94.76%. With “Hexanoyl-(D-Cys(tMeBn(DOTA-AET))-Pro-Pro-Thr-Gln-1Nal-betahomoCys)-OH”, the “final HPLC purity” value in series [2] is reported as 95.44%. In the case of “PEPTIDE1{[Hex].C.P.P.T.Q.F.C}|CHEM1{[FmXyl]}$PEPTIDE1,CHEM1,2:R3-1:R1|PEPTIDE1,CHEM1,8:R3-1:R2$$$V2.0”, in series [1] (cyclisation step), the “final HPLC purity” value stood at 99.6%. Regarding “PEPTIDE1{[Hex].C.P.P.T.Q.F.C}|CHEM1{[tMeTriazine(DOTA-AET)]}$PEPTIDE1,CHEM1,2:R3-1:R1|PEPTIDE1,CHEM1,8:R3-1:R2$$$V2.0”, in series [1] (conjugation step), the “final HPLC purity” value came out at 98.5%. For “PEPTIDE1{[Hex].C.P.P.T.Q.F.[Cys-CH2NH2]}|CHEM1{[mXyl]}$PEPTIDE1,CHEM1,2:R3-1:R1|PEPTIDE1,CHEM1,8:R3-1:R2$$$V2.0”, the “final HPLC purity” value in series [1] (cyclisation step) was determined as 95.2%.

On to “PEPTIDE1{[Hex].C.P.P.T.Q.F.[Cys-CH2NHAc]}|CHEM1{[mXyl]}$PEPTIDE1,CHEM1,2:R3-1:R1|PEPTIDE1,CHEM1,8:R3-1:R2$$$V2.0”, for which the “final HPLC purity” value in series [1] (cyclisation step) is listed as 96.9%. For the substance “PEPTIDE1{[Hex].C.P.P.T.Q.F.[bhCys].D.[am]}|CHEM1{[mXyl]}$PEPTIDE1,CHEM1,2:R3-1:R1|PEPTIDE1,CHEM1,8:R3-1:R2$$$V2.0”, the “final HPLC purity” value in series [1] (cyclisation step) came out at 98.2%.

Regarding “PEPTIDE1{[Hex].C.P.P.T.Q.F.[bhCys]}|CHEM1{[mXyl]}$PEPTIDE1,CHEM1,2:R3-1:R1|PEPTIDE1,CHEM1,8:R3-1:R2$$$V2.0”, in series [1] (cyclisation step), the “final HPLC purity” value was 99.3%.

On to “PEPTIDE1{[Hex].C.P.P.T.Q.F.[bhCys]}|CHEM1{[tMeBn(DOTA-AET)]}$PEPTIDE1,CHEM1,2:R3-1:R1|PEPTIDE1,CHEM1,8:R3-1:R2$$$V2.0”, for which, in series [1] (conjugation step), the “final HPLC purity” value stood at 99.1%. Turning to “PEPTIDE1{[Hex].C.P.P.T.Q.[1Nal].[Beta-homo-Cys].[NHBCP]}|CHEM1{[mXyl]}$PEPTIDE1,CHEM1,2:R3-1:R1|PEPTIDE1,CHEM1,8:R3-1:R2$$$V2.0”, the “final HPLC purity” value in series [1] (cyclisation step) came to 98.1%.

Regarding “PEPTIDE1{[Hex].C.P.P.T.Q.[1Nal].[Beta-homo-Cys].[NHCH2-4Pyr]}|CHEM1{[mXyl]}$PEPTIDE1,CHEM1,2:R3-1:R1|PEPTIDE1,CHEM1,8:R3-1:R2$$$V2.0”, the “final HPLC purity” value in series [1] (cyclisation step) worked out at 98.3%. Take “PEPTIDE1{[Hex].C.P.P.T.Q.[1Nal].[Beta-homo-Cys].[NHCH2cPen]}|CHEM1{[mXyl]}$PEPTIDE1,CHEM1,2:R3-1:R1|PEPTIDE1,CHEM1,8:R3-1:R2$$$V2.0”: the “final HPLC purity” value in series [1] (cyclisation step) came to 99.2%. The same measure, in the same setting: the same measure for “PEPTIDE1{[Hex].C.P.P.T.Q.[1Nal].[Beta-homo-Cys].[NHPh]}|CHEM1{[mXyl]}$PEPTIDE1,CHEM1,2:R3-1:R1|PEPTIDE1,CHEM1,8:R3-1:R2$$$V2.0”: 99.5%. Still for that read-out and setting: the figure for “PEPTIDE1{[Hex].C.P.P.T.Q.[1Nal].[Beta-homo-Cys].[NHcPen]}|CHEM1{[mXyl]}$PEPTIDE1,CHEM1,2:R3-1:R1|PEPTIDE1,CHEM1,8:R3-1:R2$$$V2.0” is 99.3%. For the substance “PEPTIDE1{[Hex].C.P.P.T.Q.[1Nal].[Cys-CH2NH-CF3PhPr]}|CHEM1{[tMeBn(DOTA-AET)]}$PEPTIDE1,CHEM1,2:R3-1:R1|PEPTIDE1,CHEM1,8:R3-1:R2$$$V2.0”, the “final HPLC purity” value in series [1] (conjugation step) was 96.1%.

Regarding “PEPTIDE1{[Hex].C.P.P.T.Q.[1Nal].[D-betahomoCys]}|CHEM1{[tMeBn(DOTA-AET)]}$PEPTIDE1,CHEM1,2:R3-1:R1|PEPTIDE1,CHEM1,8:R3-1:R2$$$V2.0”, in series [1] (whole synthesis), the “final HPLC purity” value is recorded as 90%.

For the substance “PEPTIDE1{[Hex].C.P.P.T.Q.[1Nal].[bhCys].[NHBn]}|CHEM1{[mXyl]}$PEPTIDE1,CHEM1,2:R3-1:R1|PEPTIDE1,CHEM1,8:R3-1:R2$$$V2.0”, the “final HPLC purity” value in series [1] (cyclisation step) stood at 97%. On the same count and under the same terms, the figure for “PEPTIDE1{[Hex].C.P.P.T.Q.[1Nal].[bhCys].[NHPentyl]}|CHEM1{[mXyl]}$PEPTIDE1,CHEM1,2:R3-1:R1|PEPTIDE1,CHEM1,8:R3-1:R2$$$V2.0” is 99.5%; for “PEPTIDE1{[Hex].C.P.P.T.Q.[1Nal].[bhCys].[am]}|CHEM1{[mXyl]}$PEPTIDE1,CHEM1,2:R3-1:R1|PEPTIDE1,CHEM1,8:R3-1:R2$$$V2.0” it is 98.9%. As to “PEPTIDE1{[Hex].C.P.P.T.Q.[1Nal].[bhCys]}|CHEM1{[tMeBn(DOTA-AET)]}$PEPTIDE1,CHEM1,2:R3-1:R1|PEPTIDE1,CHEM1,8:R3-1:R2$$$V2.0”, the “final HPLC purity” value in series [1] (conjugation step) amounted to 99.0%. On to “PEPTIDE1{[Hex].C.P.P.T.Q.[Cha].C}|CHEM1{[mXyl]}$PEPTIDE1,CHEM1,2:R3-1:R1|PEPTIDE1,CHEM1,8:R3-1:R2$$$V2.0”, for which, in series [1] (cyclisation step), the “final HPLC purity” value is 99.1%. For the substance “PEPTIDE1{[Nle].C.P.P.T.Q.[1Nal].[Beta-homo-Cys]}|CHEM1{[mXyl]}$PEPTIDE1,CHEM1,2:R3-1:R1|PEPTIDE1,CHEM1,8:R3-1:R2$$$V2.0”, the “final HPLC purity” value in series [1] (cyclisation step) was 98.6%.
